PubChem BioAssay AID1159590 | NIAID, 2016
Purpose: 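Effect of gene knock-down on p65 moving into nuclei after TLR2 stimulation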. System: mouse RAW264.7 macrophage reporter cells expressing GFP-p65 and a Tnf promoter-mCherry. Knock-down reagent: single siRNA against mouse genes. Duration: 48 to 72 hours after siRNA transfection, then 40 minutes of ligand. Conditions: Pam3CSK4 (TLR2/1 agonist) for 40 minutes before fixation; dose not given. Measurement: 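p65 nuclear translocation measured by high-content imaging, shown for each siRNA as a robust z-score averaged across replicates, relative to negative controls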. Direction: p65 nuclear entry z-score: higher = more p65 moved into nuclei than in negative-control wells. Hit rule: In these data the active calls have p65 nuclear entry z-score, replicate mean at about -1.5 or lower, or at about 1.5 or higher. Calls: active = strong change, up or down; inactive = little change.
The deposit covers 756 reagents; this is a part drawn at random. Over the whole deposit, 128 (17%) were called active. 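Calls are two-sided: both reduced and increased p65 nuclear entry count as active.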 Entries without a mark were called inactive. The numbers tell different reagents against one gene apart. Not given: the amount of reagent.

| gene knocked down | reagent no. | p65 nuclear entry z-score, replicate mean |
| --- | --- | --- |
| Irf3 | 1 | -0.227 |
| Irf3 | 2 | 1.93 (active) |
| Irf3 | 3 | -0.921 |
| Irf3 | 4 | 0.178 |
| Irf3 | 5 | -0.298 |
| Irf3 | 6 | -0.834 |
| Fadd | 1 | -0.782 |
| Fadd | 2 | -0.217 |
| Fadd | 3 | -0.728 |
| Fadd | 4 | -0.59 |
| Fadd | 5 | -1.56 (active) |
| Fadd | 6 | -0.219 |
| Traf6 | 1 | -2.5 (active) |
| Traf6 | 2 | -2.74 (active) |
| Traf6 | 3 | -0.848 |
| Traf6 | 4 | -1.45 |
| Traf6 | 5 | -1.7 (active) |
| Traf6 | 6 | -0.964 |
| Pik3r5 | 1 | 0.529 |
| Pik3r5 | 2 | 2.11 (active) |
| Pik3r5 | 3 | 0.0466 |
| Pik3r5 | 4 | 0.479 |
| Pik3r5 | 5 | -2.2 (active) |
| Pik3r5 | 6 | -0.347 |
| Ube2v1 | 1 | 1.45 |
| Ube2v1 | 2 | -0.685 |
| Ube2v1 | 3 | -0.0773 |
| Ube2v1 | 4 | -1.5 |
| Ube2v1 | 5 | -0.308 |
| Ube2v1 | 6 | 1.89 (active) |

Hits, among the entries above:
| gene knocked down | reagent no. | p65 nuclear entry z-score, replicate mean |
| --- | --- | --- |
| Irf3 | 2 | 1.93 (active) |
| Fadd | 5 | -1.56 (active) |
| Traf6 | 1 | -2.5 (active) |
| Traf6 | 2 | -2.74 (active) |
| Traf6 | 5 | -1.7 (active) |
| Pik3r5 | 2 | 2.11 (active) |
| Pik3r5 | 5 | -2.2 (active) |
| Ube2v1 | 6 | 1.89 (active) |

More reagents:
| gene knocked down | reagent no. | p65 nuclear entry z-score, replicate mean |
| --- | --- | --- |
| Mapk13 | 1 | -0.749 |
| Mapk13 | 2 | -1.73 (active) |
| Mapk13 | 3 | -0.721 |
| Mapk13 | 4 | -0.917 |
| Mapk13 | 5 | 1.27 |
| Mapk13 | 6 | 0.835 |
| Akt3 | 1 | 0.573 |
| Akt3 | 2 | -0.13 |
| Akt3 | 3 | -0.835 |
| Akt3 | 4 | -1.49 |
| Akt3 | 5 | -0.707 |
| Akt3 | 6 | -0.869 |
| Tlr5 | 1 | -1.15 |
| Tlr5 | 2 | 0.996 |
| Tlr5 | 3 | -0.109 |
| Tlr5 | 4 | -0.144 |
| Tlr5 | 5 | 1.09 |
| Tlr5 | 6 | -1.34 |
